Test results taken from article PMC5443517.
These are yes or no findings as the source states them, for the method shown. In cells and extracts the contact can be indirect. Some binding calls cover weakened binding; strength is not graded here.

Sequences of proteins named here, by UniProt entry; tags and fusion partners are left off. A change or cut given only in a name is not applied to a line headed by its entry.
UniProt P20700: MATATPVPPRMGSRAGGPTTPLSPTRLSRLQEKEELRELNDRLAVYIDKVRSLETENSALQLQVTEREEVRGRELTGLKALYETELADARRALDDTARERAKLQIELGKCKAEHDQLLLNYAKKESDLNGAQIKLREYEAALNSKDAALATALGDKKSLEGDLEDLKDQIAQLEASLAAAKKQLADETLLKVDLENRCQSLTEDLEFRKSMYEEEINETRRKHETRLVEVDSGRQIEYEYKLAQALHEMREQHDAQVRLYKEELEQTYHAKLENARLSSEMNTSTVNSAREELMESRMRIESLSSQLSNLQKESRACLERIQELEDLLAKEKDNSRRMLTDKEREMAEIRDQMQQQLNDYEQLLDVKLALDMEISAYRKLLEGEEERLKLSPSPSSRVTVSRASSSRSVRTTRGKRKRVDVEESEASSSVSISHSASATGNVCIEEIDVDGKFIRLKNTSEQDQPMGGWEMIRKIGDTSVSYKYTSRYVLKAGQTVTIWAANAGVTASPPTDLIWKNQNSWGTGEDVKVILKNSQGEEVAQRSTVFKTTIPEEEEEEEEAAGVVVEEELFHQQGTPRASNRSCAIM
UniProt P14859: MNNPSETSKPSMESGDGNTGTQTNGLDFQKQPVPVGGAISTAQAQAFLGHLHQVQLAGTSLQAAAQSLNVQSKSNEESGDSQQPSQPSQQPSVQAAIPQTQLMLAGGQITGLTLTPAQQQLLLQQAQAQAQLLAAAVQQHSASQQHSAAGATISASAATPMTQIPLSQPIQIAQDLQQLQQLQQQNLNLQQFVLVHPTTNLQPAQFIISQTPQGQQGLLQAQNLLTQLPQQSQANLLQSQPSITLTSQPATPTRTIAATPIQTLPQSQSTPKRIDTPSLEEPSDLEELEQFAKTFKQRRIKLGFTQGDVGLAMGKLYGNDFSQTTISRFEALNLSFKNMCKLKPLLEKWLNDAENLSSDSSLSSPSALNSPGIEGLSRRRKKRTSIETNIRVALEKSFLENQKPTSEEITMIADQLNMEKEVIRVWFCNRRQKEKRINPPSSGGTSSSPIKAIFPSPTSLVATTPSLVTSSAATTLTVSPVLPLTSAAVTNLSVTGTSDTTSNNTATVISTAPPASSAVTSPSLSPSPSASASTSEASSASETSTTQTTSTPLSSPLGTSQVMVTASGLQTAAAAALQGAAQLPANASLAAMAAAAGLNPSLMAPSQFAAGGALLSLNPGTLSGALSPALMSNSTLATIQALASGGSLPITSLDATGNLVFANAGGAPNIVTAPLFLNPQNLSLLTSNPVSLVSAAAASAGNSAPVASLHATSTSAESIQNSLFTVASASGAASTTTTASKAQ

Columns and labels:
GFP-lamin B1 S508A = GFP-lamin B1 S508A (UniProt P20700); assay: co-IP; anti-GFP antibody on Protein G Dynabeads, lysates of HeLa cells transfected with GFP-lamin B1 mutants 24 h before MMS treatment; control or MMS; blot for endogenous Oct-1
GFP-lamin B1 S391E/S393E = GFP-lamin B1 S391E/S393E (UniProt P20700); assay: as above
GFP-lamin B1 T575E = GFP-lamin B1 T575E (UniProt P20700); assay: as above
GFP-lamin B1 S391A/S393A = GFP-lamin B1 S391A/S393A (UniProt P20700); assay: as above
GFP-lamin B1 S508E = GFP-lamin B1 S508E (UniProt P20700); assay: as above
GFP-lamin B1 T575A = GFP-lamin B1 T575A (UniProt P20700); assay: as above
[1] = molecular target: lamin B1 (human (endogenous in HeLa)) (UniProt P20700); assay: co-IP; anti-lamin B1 antibody on Protein G Dynabeads, overnight at 4°C, NP-40 lysates of HeLa cells; control or MMS (100 ug/ml, 2 h and 4 h), with or without pre-treatment with JNK inhibitor SP6000125 or ERK inhibitor UO126; blot for Oct-1; in some cases cells were cross-linked with DSS or BS3 and lysed in RIPA buffer

- binding (GFP-lamin B1 S508A): binds
- binding (GFP-lamin B1 S391E/S393E): binds
- binding (GFP-lamin B1 T575E): binds weakly
- binding (GFP-lamin B1 S391A/S393A): binds
- binding (GFP-lamin B1 S508E): binds
- binding (GFP-lamin B1 T575A): binds
- binding [1]: binds
Substance: Oct-1 (from UniProt P14859 1-743)
